Measured values published in the supplement of paper PMC10849652.
Some of the results follow.

Amino acid sequences for entries named in this document (tags omitted). A change or cut given only in a name is not applied to a line headed by its entry.
UniProt P32856: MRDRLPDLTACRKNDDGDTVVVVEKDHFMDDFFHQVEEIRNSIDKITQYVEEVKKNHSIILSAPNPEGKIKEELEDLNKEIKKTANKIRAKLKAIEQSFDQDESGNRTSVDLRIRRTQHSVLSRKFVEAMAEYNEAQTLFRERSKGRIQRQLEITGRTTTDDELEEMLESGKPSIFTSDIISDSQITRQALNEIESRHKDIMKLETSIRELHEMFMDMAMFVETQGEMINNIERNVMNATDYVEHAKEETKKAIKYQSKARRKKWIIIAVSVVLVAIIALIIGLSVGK
UniProt Q9UI15: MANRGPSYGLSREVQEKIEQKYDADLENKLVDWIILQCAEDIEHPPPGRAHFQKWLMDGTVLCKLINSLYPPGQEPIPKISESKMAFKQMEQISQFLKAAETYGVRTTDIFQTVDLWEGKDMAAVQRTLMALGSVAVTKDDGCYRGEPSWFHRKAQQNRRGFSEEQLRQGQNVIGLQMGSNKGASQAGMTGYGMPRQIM
UniProt Q9ULQ0: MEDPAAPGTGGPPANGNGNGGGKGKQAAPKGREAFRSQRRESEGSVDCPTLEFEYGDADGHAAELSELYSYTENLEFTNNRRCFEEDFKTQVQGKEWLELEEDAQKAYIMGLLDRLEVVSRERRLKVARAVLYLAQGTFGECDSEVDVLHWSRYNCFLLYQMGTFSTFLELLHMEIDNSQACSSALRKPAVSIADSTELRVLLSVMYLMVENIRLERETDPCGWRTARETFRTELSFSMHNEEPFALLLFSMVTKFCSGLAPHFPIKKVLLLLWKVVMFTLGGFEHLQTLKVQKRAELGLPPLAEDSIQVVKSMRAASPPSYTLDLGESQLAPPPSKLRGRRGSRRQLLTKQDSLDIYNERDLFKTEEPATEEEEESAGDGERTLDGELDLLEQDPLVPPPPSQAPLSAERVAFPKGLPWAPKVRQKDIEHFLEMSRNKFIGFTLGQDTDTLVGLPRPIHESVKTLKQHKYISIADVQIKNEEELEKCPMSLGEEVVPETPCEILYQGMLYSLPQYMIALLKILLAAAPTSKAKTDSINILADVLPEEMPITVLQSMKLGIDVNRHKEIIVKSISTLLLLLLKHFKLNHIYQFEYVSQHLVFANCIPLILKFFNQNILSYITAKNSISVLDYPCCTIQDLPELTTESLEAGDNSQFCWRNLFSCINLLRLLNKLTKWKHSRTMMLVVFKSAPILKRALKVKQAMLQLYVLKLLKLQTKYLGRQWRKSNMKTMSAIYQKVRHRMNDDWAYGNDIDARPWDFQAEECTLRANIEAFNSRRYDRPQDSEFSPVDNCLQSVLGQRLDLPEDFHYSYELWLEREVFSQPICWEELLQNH
UniProt P49888: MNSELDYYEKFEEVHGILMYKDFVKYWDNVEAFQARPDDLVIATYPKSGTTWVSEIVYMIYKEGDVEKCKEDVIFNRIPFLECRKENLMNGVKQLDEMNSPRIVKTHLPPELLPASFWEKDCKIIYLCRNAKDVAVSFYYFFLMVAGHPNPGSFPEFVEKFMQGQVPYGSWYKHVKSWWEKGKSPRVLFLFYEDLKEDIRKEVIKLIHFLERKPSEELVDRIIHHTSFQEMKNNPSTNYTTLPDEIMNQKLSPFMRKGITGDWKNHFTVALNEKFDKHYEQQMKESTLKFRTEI
UniProt P16949: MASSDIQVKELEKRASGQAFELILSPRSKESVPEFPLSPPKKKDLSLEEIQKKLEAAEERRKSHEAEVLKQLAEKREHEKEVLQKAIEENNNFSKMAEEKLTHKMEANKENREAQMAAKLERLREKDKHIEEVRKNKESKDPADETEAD
UniProt Q9UMZ2: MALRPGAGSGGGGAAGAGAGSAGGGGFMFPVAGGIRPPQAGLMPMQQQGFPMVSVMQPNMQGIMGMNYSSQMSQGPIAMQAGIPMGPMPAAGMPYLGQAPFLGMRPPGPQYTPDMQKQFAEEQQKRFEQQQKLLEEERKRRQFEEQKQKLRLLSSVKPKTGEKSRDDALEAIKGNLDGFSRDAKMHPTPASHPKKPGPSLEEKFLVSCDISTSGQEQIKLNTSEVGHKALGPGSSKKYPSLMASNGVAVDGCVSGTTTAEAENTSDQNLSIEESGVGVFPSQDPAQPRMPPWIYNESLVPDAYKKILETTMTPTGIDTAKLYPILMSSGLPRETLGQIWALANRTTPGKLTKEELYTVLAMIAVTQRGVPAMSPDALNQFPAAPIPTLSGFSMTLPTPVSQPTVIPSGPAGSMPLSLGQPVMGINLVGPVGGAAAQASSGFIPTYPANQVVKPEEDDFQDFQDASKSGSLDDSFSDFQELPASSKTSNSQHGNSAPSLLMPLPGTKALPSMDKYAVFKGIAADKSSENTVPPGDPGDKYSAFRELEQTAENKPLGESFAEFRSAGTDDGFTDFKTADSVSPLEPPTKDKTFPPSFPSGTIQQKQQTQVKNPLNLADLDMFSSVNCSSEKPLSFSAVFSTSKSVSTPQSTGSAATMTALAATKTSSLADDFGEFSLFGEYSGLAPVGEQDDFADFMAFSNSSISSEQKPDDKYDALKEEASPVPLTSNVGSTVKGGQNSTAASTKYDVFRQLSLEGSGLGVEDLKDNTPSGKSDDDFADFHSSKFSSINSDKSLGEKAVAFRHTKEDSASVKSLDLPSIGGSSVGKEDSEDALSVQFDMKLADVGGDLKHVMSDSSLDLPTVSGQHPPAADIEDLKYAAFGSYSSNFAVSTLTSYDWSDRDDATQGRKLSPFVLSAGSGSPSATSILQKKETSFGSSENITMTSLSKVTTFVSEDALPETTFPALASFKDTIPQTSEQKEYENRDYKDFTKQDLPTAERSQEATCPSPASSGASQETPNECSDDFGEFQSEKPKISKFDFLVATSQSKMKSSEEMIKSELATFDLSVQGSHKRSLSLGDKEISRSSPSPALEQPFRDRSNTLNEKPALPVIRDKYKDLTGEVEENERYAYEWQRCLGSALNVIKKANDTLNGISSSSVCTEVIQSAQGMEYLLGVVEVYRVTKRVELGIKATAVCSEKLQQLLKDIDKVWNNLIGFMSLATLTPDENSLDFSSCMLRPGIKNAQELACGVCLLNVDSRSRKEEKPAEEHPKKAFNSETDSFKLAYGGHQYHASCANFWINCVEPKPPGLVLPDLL
UniProt Q9Y5B9, whole entry, looked up: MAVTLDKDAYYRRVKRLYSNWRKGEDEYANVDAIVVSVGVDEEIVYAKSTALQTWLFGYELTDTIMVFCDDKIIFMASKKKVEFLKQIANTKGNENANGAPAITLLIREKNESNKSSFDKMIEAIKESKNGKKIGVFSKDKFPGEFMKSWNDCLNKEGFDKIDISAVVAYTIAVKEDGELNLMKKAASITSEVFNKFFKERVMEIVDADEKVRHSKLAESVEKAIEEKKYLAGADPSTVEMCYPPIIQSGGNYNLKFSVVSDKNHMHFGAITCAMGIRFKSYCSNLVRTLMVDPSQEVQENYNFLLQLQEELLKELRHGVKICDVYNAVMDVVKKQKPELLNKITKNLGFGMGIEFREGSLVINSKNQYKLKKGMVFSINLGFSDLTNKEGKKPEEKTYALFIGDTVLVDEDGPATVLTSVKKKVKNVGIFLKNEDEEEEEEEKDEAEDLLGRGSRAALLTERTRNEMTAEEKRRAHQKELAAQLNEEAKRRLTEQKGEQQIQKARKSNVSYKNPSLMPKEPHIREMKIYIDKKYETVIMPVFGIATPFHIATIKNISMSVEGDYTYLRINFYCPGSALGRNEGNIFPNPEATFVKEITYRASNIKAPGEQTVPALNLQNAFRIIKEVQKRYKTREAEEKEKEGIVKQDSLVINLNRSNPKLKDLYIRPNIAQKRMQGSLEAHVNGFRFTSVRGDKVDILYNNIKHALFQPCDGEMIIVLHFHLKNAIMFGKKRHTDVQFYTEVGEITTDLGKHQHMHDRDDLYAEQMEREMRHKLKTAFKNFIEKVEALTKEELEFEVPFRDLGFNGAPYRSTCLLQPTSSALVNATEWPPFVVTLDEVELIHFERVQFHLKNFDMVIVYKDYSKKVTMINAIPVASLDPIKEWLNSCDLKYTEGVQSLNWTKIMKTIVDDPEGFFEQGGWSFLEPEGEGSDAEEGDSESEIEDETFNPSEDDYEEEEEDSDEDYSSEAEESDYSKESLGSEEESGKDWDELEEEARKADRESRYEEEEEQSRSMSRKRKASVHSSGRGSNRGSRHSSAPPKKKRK
UniProt Q12846: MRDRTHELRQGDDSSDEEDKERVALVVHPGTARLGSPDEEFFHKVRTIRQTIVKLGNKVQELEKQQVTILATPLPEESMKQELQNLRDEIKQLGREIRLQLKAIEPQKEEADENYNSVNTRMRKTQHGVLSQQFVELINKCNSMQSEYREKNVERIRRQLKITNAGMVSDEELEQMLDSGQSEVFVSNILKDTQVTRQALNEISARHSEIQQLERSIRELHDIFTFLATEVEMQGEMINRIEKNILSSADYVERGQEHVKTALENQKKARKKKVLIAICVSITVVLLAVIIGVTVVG
UniProt Q6ICL3: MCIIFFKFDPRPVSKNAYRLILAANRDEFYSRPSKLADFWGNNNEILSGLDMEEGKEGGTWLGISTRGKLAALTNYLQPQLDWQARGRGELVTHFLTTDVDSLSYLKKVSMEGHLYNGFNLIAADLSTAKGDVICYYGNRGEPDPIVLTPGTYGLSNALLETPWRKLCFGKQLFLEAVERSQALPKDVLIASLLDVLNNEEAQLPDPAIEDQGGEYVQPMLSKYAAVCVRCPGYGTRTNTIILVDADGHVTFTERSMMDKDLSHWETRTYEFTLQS
UniProt Q5VSL9: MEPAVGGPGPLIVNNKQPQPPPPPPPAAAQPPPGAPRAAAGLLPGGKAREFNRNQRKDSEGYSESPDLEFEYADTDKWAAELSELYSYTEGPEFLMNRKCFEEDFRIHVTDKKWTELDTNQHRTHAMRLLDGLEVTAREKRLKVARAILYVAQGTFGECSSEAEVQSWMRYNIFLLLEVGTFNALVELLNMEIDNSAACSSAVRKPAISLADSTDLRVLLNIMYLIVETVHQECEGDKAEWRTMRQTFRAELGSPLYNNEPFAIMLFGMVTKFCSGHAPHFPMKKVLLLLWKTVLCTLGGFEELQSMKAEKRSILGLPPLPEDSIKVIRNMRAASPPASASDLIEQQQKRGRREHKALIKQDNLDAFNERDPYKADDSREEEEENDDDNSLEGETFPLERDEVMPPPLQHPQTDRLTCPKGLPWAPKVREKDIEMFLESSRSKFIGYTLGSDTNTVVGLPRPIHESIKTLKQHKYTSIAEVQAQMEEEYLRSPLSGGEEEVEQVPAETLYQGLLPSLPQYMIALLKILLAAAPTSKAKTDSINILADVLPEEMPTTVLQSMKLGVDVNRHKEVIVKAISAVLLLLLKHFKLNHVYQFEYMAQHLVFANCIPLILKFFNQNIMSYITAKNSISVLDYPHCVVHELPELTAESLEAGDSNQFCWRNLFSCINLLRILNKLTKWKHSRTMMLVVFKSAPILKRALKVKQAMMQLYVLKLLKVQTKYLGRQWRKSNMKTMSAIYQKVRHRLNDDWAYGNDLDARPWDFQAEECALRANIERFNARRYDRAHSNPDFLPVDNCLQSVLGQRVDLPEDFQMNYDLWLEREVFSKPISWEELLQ
UniProt Q13190: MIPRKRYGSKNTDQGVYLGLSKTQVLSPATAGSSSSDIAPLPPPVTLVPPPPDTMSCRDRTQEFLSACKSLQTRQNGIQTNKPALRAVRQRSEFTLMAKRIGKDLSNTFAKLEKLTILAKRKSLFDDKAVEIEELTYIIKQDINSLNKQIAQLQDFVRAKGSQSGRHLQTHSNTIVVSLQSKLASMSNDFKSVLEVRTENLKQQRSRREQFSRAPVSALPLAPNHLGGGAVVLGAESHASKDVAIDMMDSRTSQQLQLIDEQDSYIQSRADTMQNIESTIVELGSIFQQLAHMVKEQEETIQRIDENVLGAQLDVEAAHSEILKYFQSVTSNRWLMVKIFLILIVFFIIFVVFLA
UniProt Q96BW9: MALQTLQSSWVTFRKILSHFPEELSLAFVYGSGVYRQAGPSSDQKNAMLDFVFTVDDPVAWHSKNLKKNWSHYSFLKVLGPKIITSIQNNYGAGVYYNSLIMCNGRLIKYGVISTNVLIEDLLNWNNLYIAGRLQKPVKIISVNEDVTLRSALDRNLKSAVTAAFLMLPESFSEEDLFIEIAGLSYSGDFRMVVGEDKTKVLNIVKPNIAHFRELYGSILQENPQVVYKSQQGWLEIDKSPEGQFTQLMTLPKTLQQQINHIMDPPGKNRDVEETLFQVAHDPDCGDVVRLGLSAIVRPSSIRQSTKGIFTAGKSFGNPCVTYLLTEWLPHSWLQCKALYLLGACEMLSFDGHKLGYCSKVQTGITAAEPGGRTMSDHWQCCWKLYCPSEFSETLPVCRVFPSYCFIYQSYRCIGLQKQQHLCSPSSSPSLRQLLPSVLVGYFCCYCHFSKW
UniProt O60499: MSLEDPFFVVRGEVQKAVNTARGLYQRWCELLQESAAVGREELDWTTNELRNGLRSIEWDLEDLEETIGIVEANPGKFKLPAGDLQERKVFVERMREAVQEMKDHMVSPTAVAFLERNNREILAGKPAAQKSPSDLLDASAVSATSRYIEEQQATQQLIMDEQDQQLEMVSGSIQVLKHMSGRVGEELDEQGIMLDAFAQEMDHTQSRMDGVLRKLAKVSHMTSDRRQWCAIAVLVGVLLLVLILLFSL

Legend:
Assay in all cases: log2 fold change, soluble protein after heating vs DMSO (PISA); higher = thermal stabilisation; K562 cells, 10 uM, 30 min; active = over 0.2 and 3.5 SD of the protein, either way, in both replicates (recomputed)
citarinostat = compound: O=C(CCCCCCNC(=O)c1cnc(N(c2ccccc2)c2ccccc2Cl)nc1)NO [citarinostat]
In short: (§1)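 K562 cells at 2×10^6 cells/mL were treated with 10 μM compound for 30 min. Aliquots were heated for 3 min across 48°C-58°C, pooled, and extracted in PBS with 0.5% NP-40 at 4°C; soluble protein was the supernatant after 21,000xg for 90 min. Soluble protein was quantified by TMTpro 16plex LC-MS/MS with channel sums equalised, and reported as log2 fold change in thermal stability against DMSO controls, with values from duplicates.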

silmitasertib = compound: O=C(O)c1ccc2c(c1)nc(Nc1cccc(Cl)c1)c1ccncc12 [silmitasertib]
In short: as §1

[1] = compound: O=C1NC(=O)C(c2cnc3ccccn23)=C1c1cn2c3c(cc(F)cc13)CN(C(=O)N1CCCCC1)CC2
In short: as §1

[2] = compound: c1cc(OCCN2CCCCC2)cc(-c2n[nH]c3ccc(-c4nnc[nH]4)cc23)c1
In short: as §1

[3] = compound: c1ccc([C@@H]2C[C@H]2NC2CCNCC2)cc1
In short: as §1

entospletinib = compound: c1cn2cc(-c3ccc4cn[nH]c4c3)nc(Nc3ccc(N4CCOCC4)cc3)c2n1 [entospletinib]
In short: as §1

[4] = compound: C1=CC=C(C=C1)[C@H](COC2=CC3=C(C=C2)NC(=O)N3)NC(=O)C4=CC=CN(C4=O)CC5=CC(=C(C=C5)F)F
In short: as §1

[5] = compound: CC1=C(SC2=C1C(=N[C@H](C3=NN=C(N32)C)CC(=O)N)C4=CC=C(C=C4)Cl)C
In short: as §1

[6] = compound: CC1=C2C(=CC=C1)N=C(N(C2=O)C3=CC=CC=C3C)CN4C=NC5=C(N=CN=C54)N
In short: as §1

[7] = compound: Cc1sc2c(c1C)C(c1ccc(Cl)cc1)=N[C@@H](CC(=O)OC(C)(C)C)c1nnc(C)n1-2
In short: as §1

Measured: log2 fold change

STX2 (UniProt P32856)
inactive: citarinostat -0.018 | silmitasertib 0.046 | [1] -0.036 | [2] 0.122 | [3] 0.108 | entospletinib 0.014

TATDN2 (UniProt Q93075)
inactive: [4] -0.044 | [5] -0.067 | [6] -0.037 | [7] 0.069 | [3] 0.071

TAGLN (UniProt Q01995)
inactive: [4] -0.062

SUGT1 (UniProt Q9Y2Z0)
inactive: [4] -0.004 | [5] 0.022 | [6] 0.015 | [7] -0.01 | [3] 0.008

SYNJ1 (UniProt O43426)
inactive: [4] 0.045 | [5] 0.002 | [6] 0.076 | [7] 0.05 | [3] 0.064

STX6 (UniProt O43752)
inactive: [4] 0.004 | [5] 0.016 | [6] 0.057 | [7] 0.009 | [3] 0.033

STS (UniProt P08842)
inactive: [4] -0.009

TAGLN3 (UniProt Q9UI15)
inactive: [4] -0.107 | [5] -0.082 | [6] 0.088 | [7] -0.052 | [3] 0.15

STRIP2 (UniProt Q9ULQ0)
inactive: [4] 0.046 | [5] 0.119 | [6] 0.038 | [7] 0.053 | [3] 0.088

TAF8 isoform 2 (UniProt Q7Z7C8)
inactive: [4] 0.012 | [5] -0.028 | [6] 0.053 | [7] -0.042 | [3] -0.029

SURF4 (UniProt O15260)
inactive: [4] -0.007 | [5] -0.011 | [6] -0.052 | [7] -0.041 | [3] 0.023

STX16 isoform 2 (UniProt O14662)
inactive: [4] 0.003 | [5] 0.03 | [6] 0.033 | [7] -0.121 | [3] 0.028

TALDO1 (UniProt P37837)
inactive: [4] -0.067 | [5] 0.027 | [6] 0.011 | [7] -0.006 | [3] -0.063

SUFU (UniProt Q9UMX1)
inactive: [4] -0.01

SULT1E1 (UniProt P49888)
inactive: [4] 0.068

SUPV3L1 (UniProt Q8IYB8)
inactive: [4] 0.009 | [5] -0.017 | [6] 0.012 | [7] -0.009 | [3] 0.074

TARBP2 (UniProt Q15633)
inactive: [4] -0.011 | [5] -0.088 | [6] -0.053 | [7] 0.153 | [3] 0.018

SULT1A1 (UniProt P50225)
inactive: [4] -0.083 | [5] 0.064 | [6] -0.021 | [7] -0.06 | [3] -0.066

SYNGR2 (UniProt O43760)
inactive: [4] 0.025 | [5] 0.106 | [6] 0.091 | [7] -0.041 | [3] 0.12

SUPT7L (UniProt O94864)
inactive: [4] -0.174

STMN1 (UniProt P16949)
inactive: [4] -0.048 | [5] 0.013 | [6] -0.005 | [7] 0.022 | [3] 0.003

TAF5L (UniProt O75529)
inactive: [4] -0.218

STRBP (UniProt Q96SI9)
inactive: [4] 0.2 | [5] -0.053 | [6] 0.154 | [7] 0.152 | [3] 0.12

2 records drawn at random from those above:
TAF5L (UniProt O75529)
inactive: [4] -0.218

STRBP (UniProt Q96SI9)
inactive: [4] 0.2 | [5] -0.053 | [6] 0.154 | [7] 0.152 | [3] 0.12

Further records

SYNRG (UniProt Q9UMZ2)
inactive: [4] -0.009 | [5] 0.08 | [6] 0.053 | [7] 0.011 | [3] 0.009

SUPT16H (UniProt Q9Y5B9)
inactive: [4] -0.238 | [5] 0.023 | [6] 0.279 | [7] -0.106 | [3] -0.006

STK38L (UniProt Q9Y2H1)
inactive: [4] -0.009 | [6] 0.162 | [7] 0.07 | [3] 0.224
active: [5] 0.472

SUPT6H (UniProt Q7KZ85)
inactive: [4] -0.181 | [5] 0.115 | [6] 0.234 | [7] 0.053 | [3] -0.187

TAPT1 (UniProt Q6NXT6)
inactive: [4] 0.01 | [5] 0.043 | [6] 0.007 | [7] 0.046 | [3] -0.006

SYNCRIP isoform 3 (UniProt O60506)
inactive: [4] 0.019 | [5] -0.044 | [6] -0.032 | [7] 0.147 | [3] 0.08

TARBP1 (UniProt Q13395)
inactive: [4] -0.058 | [5] 0.048 | [6] 0.081 | [7] -0.073 | [3] -0.027

STX4 (UniProt Q12846)
inactive: [4] -0.042 | [5] 0.017 | [6] 0.07 | [7] -0.003 | [3] -0.008

Reprinted from the listing (2 entries):
TAPT1 (UniProt Q6NXT6)
inactive: [4] 0.01 | [5] 0.043 | [6] 0.007 | [7] 0.046 | [3] -0.006

SYNCRIP isoform 3 (UniProt O60506)
inactive: [4] 0.019 | [5] -0.044 | [6] -0.032 | [7] 0.147 | [3] 0.08

(list continues)

TANGO2 isoform 4 (UniProt Q6ICL3)
inactive: [4] -0.036 | [5] 0.061 | [6] 0.069 | [7] -0.029 | [3] -0.024

SYNE2 isoform 2 (UniProt Q8WXH0)
inactive: [4] 0.064 | [5] 0.055 | [6] 0.209 | [7] -0.004 | [3] 0.096

SYAP1 (UniProt Q96A49)
inactive: [4] -0.03 | [5] 0.059 | [6] 0.007 | [7] -0.009 | [3] 0.019

STX17 (UniProt P56962)
inactive: [4] 0.03 | [5] 0.006 | [6] 0.029 | [7] 0.004 | [3] -0.058

STRN3 isoform 2 (UniProt Q13033)
inactive: [4] 0.029 | [5] 0.02 | [6] 0.113 | [7] -0.077 | [3] -0.176

SURF6 (UniProt O75683)
inactive: [4] 0.143 | [5] -0.133 | [6] 0.021 | [7] 0.199 | [3] 0.065

SUMO3 isoform 2 (UniProt P55854)
inactive: [4] 0.042 | [5] -0.057 | [6] -0.114 | [7] 0.033 | [3] 0.116

STK38 (UniProt Q15208)
inactive: [4] -0.08 | [5] 0.045 | [6] 0.055 | [7] 0.028 | [3] -0.034

STRIP1 (UniProt Q5VSL9)
inactive: [4] -0.064 | [5] 0 | [6] -0.002 | [7] 0.01 | [3] 0.001

STX5 (UniProt Q13190)
inactive: [4] -0.057 | [5] 0.017 | [6] 0.045 | [7] -0.025 | [3] -0.068

TAMM41 isoform 3 (UniProt Q96BW9)
inactive: [4] -0.012 | [5] 0.1 | [6] 0.09 | [7] -0.06 | [3] 0.001

STX10 (UniProt O60499)
inactive: [4] -0.122 | [5] -0.041 | [6] 0.029 | [7] -0.082 | [3] 0.037

STX3 (UniProt Q13277)
inactive: [4] -0.011 | [5] 0.058 | [6] -0.002 | [7] 0.011 | [3] 0.078

SUPT5H (UniProt O00267)
inactive: [4] -0.05 | [5] 0.109 | [6] 0.106 | [7] 0.001 | [3] -0.051

STK26 (UniProt Q9P289)
inactive: [4] -0.077 | [5] -0.029 | [6] -0.006 | [7] 0.004 | [3] 0.026

STRN4 isoform 3 (UniProt Q9NRL3)
inactive: [4] -0.046 | [5] 0.028 | [6] 0.065 | [7] -0.028 | [3] 0.004

SUPT4H1 (UniProt P63272)
inactive: [4] 0.013 | [5] 0.192 | [6] 0.092 | [7] 0.002 | [3] 0.005

SUDS3 (UniProt Q9H7L9)
inactive: [4] -0.21 | [5] 0.125 | [6] -0.062 | [7] 0.12 | [3] -0.07

STXBP2 isoform 3 (UniProt Q15833)
inactive: [4] -0.15 | [5] -0.05 | [6] 0.071 | [7] 0.031 | [3] -0.03

TATDN1 (UniProt Q6P1N9)
inactive: [4] -0.008 | [5] 0.002 | [6] -0.022 | [7] 0.03 | [3] 0.071

STOM (UniProt P27105)
inactive: [4] 0.06 | [5] -0.019 | [6] -0.014 | [7] -0.021 | [3] 0.082

TAF2 (UniProt Q6P1X5)
inactive: [4] 0.05 | [5] -0.015 | [6] -0.051 | [7] 0.072 | [3] -0.234

STK39 (UniProt Q9UEW8)
inactive: [4] -0.105 | [5] -0.015 | [6] 0.034 | [7] -0.026 | [3] -0.029

SULT1A3 isoform 3 (UniProt P0DMM9)
inactive: [4] -0.049 | [5] -0.091 | [6] 0.165 | [7] 0.009 | [3] -0.089

STT3A (UniProt P46977)
inactive: [4] 0.024 | [5] -0.012 | [6] -0.025 | [7] -0.022 | [3] 0.012
